Experimental data reported in PubChem BioAssay AID588590 (National Center for Advancing Translational Sciences (NCATS), 2011).
Where “and” joins values, the source holds several entries; their conditions need not be identical. Equal entries are not always repeated. In all, about 390,000 compounds went through this assay and about 4,000 (1%) were called active. Inconclusive results, whose numbers are uncertain, are shown with a selection of clear calls. The call rests on the fitted dose curve; in most records, active means well fitted inhibition curve with a large enough effect; inconclusive means small, poorly fitted or top-dose-only effect, or another doubt; inactive means no such curve, though single readings can be large or run the other way. Potencies of inconclusive entries are doubtful fits and often do not repeat. More than one record can exist for a structure, and the calls need not agree.

By UniProt entry, the sequences of proteins in these tests, tags left out. Where a name states a change or a piece, a line headed by the entry shows the natural chain unless it says otherwise.
UniProt Q9UNA4: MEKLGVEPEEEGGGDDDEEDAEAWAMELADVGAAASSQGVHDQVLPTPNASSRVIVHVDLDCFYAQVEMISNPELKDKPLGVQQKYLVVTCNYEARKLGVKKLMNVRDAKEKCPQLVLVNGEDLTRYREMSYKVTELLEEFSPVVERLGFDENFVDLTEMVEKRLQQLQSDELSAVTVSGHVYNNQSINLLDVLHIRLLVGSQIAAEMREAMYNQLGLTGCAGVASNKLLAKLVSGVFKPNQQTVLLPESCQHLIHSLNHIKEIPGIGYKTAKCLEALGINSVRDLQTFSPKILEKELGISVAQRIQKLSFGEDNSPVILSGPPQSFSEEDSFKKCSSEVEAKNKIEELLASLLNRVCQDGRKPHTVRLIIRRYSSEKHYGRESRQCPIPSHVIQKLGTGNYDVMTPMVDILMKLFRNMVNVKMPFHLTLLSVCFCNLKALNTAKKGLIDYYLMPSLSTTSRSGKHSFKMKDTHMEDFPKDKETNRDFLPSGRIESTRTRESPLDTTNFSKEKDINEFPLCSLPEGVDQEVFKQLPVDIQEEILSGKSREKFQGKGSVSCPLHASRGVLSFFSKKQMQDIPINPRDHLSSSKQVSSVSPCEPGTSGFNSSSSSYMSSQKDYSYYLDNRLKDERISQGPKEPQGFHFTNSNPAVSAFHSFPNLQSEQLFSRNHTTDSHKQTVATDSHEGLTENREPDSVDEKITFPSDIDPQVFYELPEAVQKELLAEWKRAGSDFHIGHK

target: DNA polymerase iota (Homo sapiens) (UniProt Q9UNA4); assay: qHTS for Inhibitors of Polymerase Iota; settings: Pol iota fluorescent replication assay, 10 min; series mostly up to 115 µM
How it was run: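 Pol iota at 10 nM preincubated 15 min with compounds at room temperature; reaction started with fluorescent substrate, 50 nM final. Fluorescence read kinetically at 0 and 10 min; buffer-only wells as negative control.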
Potency means the concentration at half of the fitted maximal effect.

Potency, inconclusive:
Cc1ccc(NC(=O)CCCN2C(=O)/C(=C/C=C/c3ccccc3)SC2=S)cc1 89.1 µM [inhibitor, partial curve, poor fit]
O=[N+]([O-])c1ccc(N/N=C/c2cccc(O)c2O)c(S(=O)(=O)N2CCOCC2)c1 11.2 µM [inhibitor, full curve]
O=c1[nH]nc(-c2ccc(NCCCO)c([N+](=O)[O-])c2)c2ccccc12 89.1 µM [inhibitor, single point]
O=c1oc(-c2ccccc2)cc(Cl)c1Cl 11.2 µM [inhibitor, partial curve]
C=C1C(=O)[C@@]23[C@H](O)C[C@@H]4C(C)(C)CC[C@H](O)[C@]4(C)[C@@H]2C[C@H](O)[C@@H]1[C@H]3O 22.4 µM [inhibitor, partial curve, poor fit]
O=c1ccc2cc(O)c(O)cc2o1 79.4 µM [inhibitor, single point]
COc1ccc(C(=O)Nc2cc(C)cc(C)c2)cc1S(=O)(=O)N1CCOCC1 3.16 µM [inhibitor, single point]
O=c1ccc2cc(S(=O)(=O)NCc3ccc(Cl)cc3)ccc2[nH]1 39.8 µM [inhibitor, partial curve]
Fc1cccc(NC(=S)NNc2ccccc2)c1 14.1 µM [inhibitor, partial curve, poor fit]
Cc1ccc(NC(=O)CN2CC(C)SC2=NC2CCCCC2)cc1 (configuration not stated) 89.1 µM [inhibitor, single point]
COc1cccc(NC(=O)CCC2CCN(C(=O)c3ccc(C(C)=O)s3)CC2)c1 89.1 µM [inhibitor, partial curve]
O=C(CSc1cn[nH]n1)Nc1cccc(C(=O)O)c1 31.6 µM [inhibitor, partial curve]
CN1CCN(CC#CC2(O)CCCCC2)CC1 126 µM [inhibitor, partial curve, poor fit]
Cc1cccc(-n2cnc3c(c2=O)c2nc4ccccc4nc2n3Cc2ccco2)c1 35.5 µM [inhibitor, partial curve, poor fit]
CCOC1=C/C(=C/c2c(N)n3nc(-c4ccccc4)sc3nc2=O)C=CC1=O 39.8 µM [inhibitor, partial curve, poor fit]
Cc1cc2ccccc2n1CCNC(=O)Cc1cccc2ccccc12 2 µM [inhibitor, partial curve, poor fit]
CCN1C(=O)[C@@H]2[C@@H](c3ccc(SC4CCCCC4)cc3)N3CCCC[C@@]3(C(=O)OC)[C@@H]2C1=O 39.8 µM [inhibitor, single point]
CCOc1ccc2nc(SCC#N)c(C#N)cc2c1 7.94 µM [inhibitor, full curve, poor fit]
O=S(=O)(c1ccc(-c2ccon2)s1)N1CCN(CCN2CCOCC2)CC1 39.8 µM [inhibitor, partial curve, poor fit]
O=c1oc2ccccc2c(Nc2cc3ccccc3cc2O)c1[N+](=O)[O-] 50.1 µM [inhibitor, partial curve, poor fit]
CCCc1ccc(-c2cc(C(=O)NCCc3ccc(S(N)(=O)=O)cc3)c3ccccc3n2)cc1 79.4 µM [inhibitor, partial curve, poor fit]
COc1ccc(N2CCN(C(=O)CNC(=O)Cn3cnc4sc(C)c(C)c4c3=O)CC2)cc1 89.1 µM [inhibitor, single point]
Cn1c(=O)c2c(nc(CN3CCCCC3)n2CCCc2ccccc2)n(C)c1=O 15.8 µM [inhibitor, partial curve, poor fit]
Cc1nc2ccc(NC(=O)COc3ccccc3[N+](=O)[O-])cc2s1 79.4 µM [inhibitor, partial curve, poor fit]
CCOC(=O)/C(C#N)=C1/C=C(C)c2ccccc2N1 15.8 µM [inhibitor, partial curve, poor fit]
COc1ccc(N2CCN(C(c3cccc(OC)c3OC)c3nnnn3C3CCCC3)CC2)cc1 (configuration not stated) 22.4 µM [inhibitor, partial curve, poor fit]
Cc1nc2sc(C(c3ccco3)N3CCN(c4cccc(Cl)c4)CC3)c(O)n2n1 (configuration not stated) 44.7 µM [inhibitor, partial curve, poor fit]
COc1cccc(CNC(=O)CSc2nnc(C)c3c(C)n(-c4ccccc4)nc23)c1 79.4 µM [inhibitor, partial curve, poor fit]
O=C(CSc1ncnc2sc3c(c12)CCC3)Nc1ccccc1C(=O)O 8.91 µM [inhibitor, partial curve, poor fit]
COc1cccc(C(=O)C2CN(c3ccccc3)CC2c2ccc(Cl)cc2)c1 (configuration not stated) 11.2 µM [inhibitor, full curve, poor fit]
Cc1ccccc1NC(=O)c1c2c(nc3ccccc13)CCC2 44.7 µM [inhibitor, partial curve]
COC(=O)c1cc(OC)c(OC)cc1NC(=O)c1cc(-c2ccccc2)nc2ccccc12 89.1 µM [inhibitor, single point]
O=C(OCC(=O)N1CCN(C(=O)c2ccco2)CC1)c1ccccc1Cc1ccccc1 100 µM [inhibitor, single point]
CC(C)C[C@@H](CN)NC(=O)c1nc[nH]c1C(=O)N[C@@H](CC(=O)O)C(=O)CNC[C@H](C)NC(=O)c1nc[nH]c1C(=O)N[C@@H](CC(=O)O)C(=O)O 28.2 µM [inhibitor, full curve]
Cc1ccc(NC(=O)/C(=C\c2cccc(Br)c2)NC(=O)c2ccco2)cc1 100 µM [inhibitor, partial curve]
COC(=O)c1ccc(-n2nnc(-c3nsc(NC(=O)c4ccc(Cl)cc4)n3)c2C)cc1 89.1 µM [inhibitor, single point]
O=C(Oc1ccccc1)c1ccccc1C(=O)Oc1ccccc1 70.8 µM [inhibitor, partial curve, poor fit]
COc1ccccc1NC(=S)N(c1ccccc1)C(C)C 79.4 µM [inhibitor, partial curve, poor fit]
C=CCOc1cccc(C2C(C(=O)c3ccco3)=C(O)C(=O)N2Cc2ccco2)c1 (configuration not stated) 4.47 µM [inhibitor, single point]
CC(C)C[C@H](N)c1cn([C@@H](Cc2cc3ccccc3[nH]2)C(=O)N2CCNCC2)nn1 35.5 µM [inhibitor, partial curve, poor fit]
COc1cc2nc(N3CCCN(C)CC3)nc(N(C)C)c2cc1OC 89.1 µM [inhibitor, single point]
O=C1C=C(c2ccccc2)C[C@H](c2cccs2)[C@H]1n1cnc([N+](=O)[O-])c1 39.8 µM [inhibitor, single point]
CCOC(=O)C1=C(NC(=S)NC(=O)c2ccccc2)c2ccccc2CC1C(C)C (configuration not stated) 10 µM [inhibitor, single point]
CCN(Cc1ccccc1)C(=O)CCS(=O)(=O)c1cc(Br)cc2c1N(C(=O)C1CC1)CC2 89.1 µM [inhibitor, single point]

Potency, inactive:
COc1ccc(-c2ccc(N(C)C)cc2)cc1C1C2C=CCCC2(C)C(=O)N1Cc1ccccc1 (configuration not stated)
CN(CCN1CCOCC1)Cc1nc(-c2ccccc2)no1
Brc1cc2c(cc1C1Nc3ccccc3C3C=CCC31)OCO2 (configuration not stated)
CN(C)c1ccc(/C=C/c2ccnc3c(O)cccc23)cc1
CN1CCCC1CCNc1ccc2c(=O)c3ccccc3oc2c1 (configuration not stated)
O=C(CN(Cc1ccco1)C(=O)c1ccc(F)cc1F)Nc1ccccc1C(F)(F)F
O=C(COc1ccc(S(=O)(=O)N2CCCC2)cc1)NCc1cccnc1
COc1ccc(C)cc1NS(=O)(=O)c1cc(Br)cc2c1N(C(C)=O)C(C)C2 (configuration not stated)
CCCN1CCC(=O)N(CCSc2ccccc2)CC1
O=C(NC1CCCCC1)C(c1cccnc1)N(C(=O)c1ccc(Cl)nc1)C1CCCCC1 (configuration not stated)
COc1ccc(C2CC(c3ccccc3)Oc3cc(OC)c(OC)c(OC)c32)cc1 (configuration not stated)
CC(/C=N/NC(=O)c1ccc(CN2c3cccc4cccc(c34)S2(=O)=O)cc1)c1ccccc1 (configuration not stated)
CCc1ccc(NC(=O)Cn2nnc(C(=O)NCCc3ccccc3)c2N)cc1
O=C(Cn1nc(C(=O)O)c2ccccc2c1=O)NC12CC3CC(CC(C3)C1)C2
COc1ccccc1NC(=O)CCNS(=O)(=O)c1ccc2c(c1)CCN2C(=O)C1CC1
CCOC(=O)C(C)On1c(-c2ccccc2)nc2ccc([N+](=O)[O-])cc21 (configuration not stated)
Cc1ccc(C)c(N2CCN(S(=O)(=O)c3ccc(F)c(C(=O)Nc4ccc(Cl)cc4Cl)c3)CC2)c1

Potency, inactive and 22.4 µM (active):
CCOC(=O)c1cc2c(=O)n3ccccc3nc2n(Cc2ccco2)c1=NC(=O)c1ccc(OC)cc1
